Source: paper PMC4634797 (Malaria Journal, 2015)
Plain letter strings leave the end groups untold.

Test: general procedure: Fmoc solid-phase peptide synthesis; Wang resin (aapptec), 0.55 mmol g^-1; DIC/HOBt
Details: whole synthesis, 220 nm

DRVYHIPF
final HPLC purity: 98%
